No constants are given. Whether binding was seen depends on the method and setting. Some entries that bind do so weakly or less than the wild type.
Assays:
Assay in all cases: ELISA; competition ELISA: MaxiSorp plates coated with human VSIG3, VSIG8 or LRIG1; h-VISTA-ECD-Fc-Avi-tag pre-incubated 1 h at room temperature with KVA12123 or isotype control, then 2 h on the plate; pH 7.4 dilution and wash buffers; streptavidin-HRP; both purified
[1] = biological target: T1, human LRIG1 (human) (UniProt Q96JA1)
T1 sequence: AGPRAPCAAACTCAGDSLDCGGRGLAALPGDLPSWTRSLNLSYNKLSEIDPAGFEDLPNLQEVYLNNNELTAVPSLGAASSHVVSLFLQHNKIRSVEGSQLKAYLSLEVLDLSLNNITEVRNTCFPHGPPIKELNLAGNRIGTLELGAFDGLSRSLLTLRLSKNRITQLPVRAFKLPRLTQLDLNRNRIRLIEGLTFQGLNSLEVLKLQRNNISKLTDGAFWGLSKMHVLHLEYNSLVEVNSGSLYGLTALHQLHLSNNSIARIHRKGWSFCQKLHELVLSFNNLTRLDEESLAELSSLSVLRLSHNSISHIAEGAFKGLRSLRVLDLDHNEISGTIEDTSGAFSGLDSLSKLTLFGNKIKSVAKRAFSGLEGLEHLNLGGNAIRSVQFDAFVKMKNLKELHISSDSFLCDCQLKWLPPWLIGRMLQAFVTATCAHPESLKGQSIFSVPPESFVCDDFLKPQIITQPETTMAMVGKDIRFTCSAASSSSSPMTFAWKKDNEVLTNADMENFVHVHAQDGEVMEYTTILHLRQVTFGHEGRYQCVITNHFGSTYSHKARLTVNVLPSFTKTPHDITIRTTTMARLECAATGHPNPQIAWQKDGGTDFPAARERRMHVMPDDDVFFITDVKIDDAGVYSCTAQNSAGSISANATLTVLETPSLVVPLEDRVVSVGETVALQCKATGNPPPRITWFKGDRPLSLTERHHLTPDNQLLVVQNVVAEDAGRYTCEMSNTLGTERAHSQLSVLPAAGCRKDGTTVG

Amino acid sequences for entries named in this document (tags omitted). Residues count along the entry.
UniProt Q9H7M9, residues 33-194: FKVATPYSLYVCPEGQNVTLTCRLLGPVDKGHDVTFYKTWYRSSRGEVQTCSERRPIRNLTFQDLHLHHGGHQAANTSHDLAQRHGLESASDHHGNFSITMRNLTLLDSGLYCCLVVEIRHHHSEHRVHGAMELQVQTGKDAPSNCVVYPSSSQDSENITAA

[2] = biological target: T2, human VSIG3 (human) (UniProt Q5DX21)
T2 sequence: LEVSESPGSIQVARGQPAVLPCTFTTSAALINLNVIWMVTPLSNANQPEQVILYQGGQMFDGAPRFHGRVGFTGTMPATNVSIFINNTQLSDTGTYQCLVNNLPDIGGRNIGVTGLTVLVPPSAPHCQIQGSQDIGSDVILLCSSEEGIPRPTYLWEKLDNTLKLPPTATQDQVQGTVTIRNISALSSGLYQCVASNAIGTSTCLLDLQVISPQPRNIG

[3] = biological target: T3, human VSIG8 (human) (UniProt P0DPA2)
T3 sequence: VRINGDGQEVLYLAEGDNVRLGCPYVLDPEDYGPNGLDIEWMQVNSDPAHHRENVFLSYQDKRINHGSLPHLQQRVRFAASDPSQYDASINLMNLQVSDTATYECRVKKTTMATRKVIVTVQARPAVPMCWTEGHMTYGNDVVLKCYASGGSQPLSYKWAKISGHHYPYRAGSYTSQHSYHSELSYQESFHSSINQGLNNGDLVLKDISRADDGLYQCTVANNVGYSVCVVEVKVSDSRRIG

Measured: binding

h-VISTA-ECD-Fc-Avi-tag (from UniProt Q9H7M9 33-194) (Fc fusion)
binds: all assays above
